In patent US8211912B2, “Compositions and methods for effecting NAD+ levels using a nicotinamide phosphoribosyl tranferase inhibitor” (Gemin X Pharmaceuticals Canada, priority 2007, dated 2012):
At least one compound was matched to its structure with a doubt left.

Assay: Additional combination experiments with Compound 1
Assay type: cell-based

For `C[C@@H]1C[C@H]2[C@@H]3CCC4=CC(=O)C=C[C@]4(C)[C@@]3(F)[C@@H](O)C[C@]2(C)[C@@]1(O)C(=O)CO` [Dexamethasone], the “Combination effect in the presence of Compound 1” value was “less than additive effect”.
